Experimental findings from the supplement of paper PMC8616043 are described below.

The structures appear in SMILES notation. Where a name gives a salt, the structure may show the parent alone. The list shows a part of the results. This data set is noisy: repeats of one test often differ as much as different tests do.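 PR50, a 50-repeat proline–arginine dipeptide protein from C9ORF72 (ALS/FTD), was expressed by transfection in U-2 OS human cells stably carrying a GFP sensor with import and classical export signals. Per-well nuclear-minus-cytoplasm GFP, normalized between in-plate DMSO (low) and PR-only (high), was scored versus other test wells; compounds well below zero were hits reversing PR.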

The subject of the assay is U-2 OS NCT-C biosensor cells expressing PR50. The experiment in a line: Z-score of normalised NCT-C biosensor translocation index in PR50-expressing cells; higher = more nuclear biosensor (more disrupted nuclear export). To be noted: 3 µM; 24 h.
Regarding `C[C@@H]1O[C@@H](Oc2c(-c3ccc(O)c(O)c3)oc3cc(O)cc(O)c3c2=O)[C@H](O)[C@H](O)[C@H]1O` [Quercitrin], the Z-score is inactive: 1.42.

Regarding `CN(C)CCCNC(=O)c1ccc(-c2cc(O)c3ncccc3c2)cc1`, the Z-score is inactive: -0.314.

Take `O=C(O)Cc1ccccc1Nc1c(Cl)cccc1Cl` [Diclofenac sodium]: the Z-score is inactive: -0.64.

Take `O=c1[nH]cc(F)c(=O)[nH]1` [5-Fluorouracil]: the Z-score was inactive: -0.587.

In the case of `O=c1[nH]cc(F)c(=O)[nH]1` [Fluorouracil (5-Fluorouracil)], the Z-score is inactive: 0.354.

Take `C[C@]12C=CC(=O)C=C1CC[C@@H]1[C@@H]2[C@@H](O)C[C@@]2(C)[C@H]1CC[C@]2(O)C(=O)CO` [Prednisolone]: the Z-score is inactive: -0.423.

For `CC(C)Cc1ccc([C@H](C)C(=O)O)cc1` [S(+)-Ibuprofen], the Z-score is inactive: -0.0191.

With `CC(C)C(=O)SCCCCCCC(=O)Nc1nc(-c2ccccc2)cs1`, the Z-score was active: -2.28.

As to `CC(=O)Oc1cc(C(F)(F)F)ccc1C(=O)O` [Triflusal], the Z-score was inactive: -0.566.

In the case of `C[N+](C)(C)CCO.[Br-]` [Choline bromide], the Z-score was inactive: 3.13.

In the case of `N=c1ccn2c(n1)O[C@H]1[C@H](O)[C@@H](CO)O[C@H]12` [Ancitabine hydrochloride], the Z-score is inactive: -0.285.

For the molecule `O=C1NC(=O)/C(=C/c2ccc(-c3ccc(F)cc3O)o2)S1`, the Z-score was inactive: -0.193.

Turning to `CC[N+](CC)(CC)CC` [Tetraethylammonium chloride], the Z-score is inactive: -0.559.

With `COc1ccc(CCN(C)CCc2ccc(OC)c(OC)c2)cc1OC` [YS-035  hydrochloride], the Z-score is inactive: -0.362.

Regarding `Cc1cccc(-c2[nH]c(C(C)(C)C)nc2-c2ccc3nccnc3c2)n1`, the Z-score was inactive: 0.22.

`CC[C@H](C)n1cc(C)c2c(C(=O)NCc3c(C)cc(C)[nH]c3=O)cc(-c3ccc(N4CCNCC4)nc3)cc21`: the Z-score is inactive: -1.12.

In the case of `O=c1c(O)c(-c2cc(O)c(O)c(O)c2)oc2cc(O)ccc12` [Robinetin], the Z-score was inactive: -0.671.

For the molecule `Cc1ccccc1/C=C/C1=NCCN1` [Metrazoline oxalate], the Z-score is inactive: 0.162.

On to `O=C(O)C1CCCNC1` (racemic) [(±)-Nipecotic acid], for which the Z-score is inactive: 0.107.

Consider `CN(C)[C@@H]1C(O)=C(C(N)=O)C(=O)[C@@]2(O)C(O)=C3C(=O)c4c(O)cccc4[C@@](C)(O)[C@H]3C[C@@H]12` [Tetracycline], for which the Z-score is inactive: 0.289.

For the molecule `C[C@H](N[C@@H](CCc1ccccc1)C(=O)O)C(=O)N1CCC[C@H]1C(=O)O` [Enalaprilat dihydrate], the Z-score was inactive: 0.258.
